These results are taken from paper PMC8576121.

No constants are given. Whether binding was seen depends on the method and setting. Binding seen in cells or lysates may run through a third protein. These calls come from enrichment with a bait or labelling near it, and not all partners need be listed. For some of these results: A no says only that the protein was not detected with the bait.

What all share (test): affinity purification with mass spectrometry; N-His6 bait overproduced in H. volcanii; cytoplasmic extract on nickel chelating sepharose at room temperature in 2.1 M NaCl, 20 mM HEPES, 20 mM imidazole; four washes with 30 mM imidazole, elution with 700 mM imidazole; no RNase step, no cross-linking; co-isolated proteins identified by LC-MS/MS; three biological replicates; proteins found in the empty-vector or DHFR controls removed

The target of assay [1] is T1, translation initiation factor aIF2 alpha subunit (Haloferax volcanii) (UniProt D4GT46).
T1 sequence: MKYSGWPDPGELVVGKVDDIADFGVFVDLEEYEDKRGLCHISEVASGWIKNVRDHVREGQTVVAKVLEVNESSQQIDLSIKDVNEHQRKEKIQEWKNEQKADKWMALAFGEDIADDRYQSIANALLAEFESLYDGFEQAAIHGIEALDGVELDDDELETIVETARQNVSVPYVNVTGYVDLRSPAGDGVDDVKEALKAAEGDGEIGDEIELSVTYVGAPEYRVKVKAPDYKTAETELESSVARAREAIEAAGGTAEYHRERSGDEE

The target of assay [2] is T2, translation initiation factor aIF2 beta subunit / probable RNA-binding protein (aIF2β-2) (Haloferax volcanii) (UniProt D4GVV8).
T2 sequence: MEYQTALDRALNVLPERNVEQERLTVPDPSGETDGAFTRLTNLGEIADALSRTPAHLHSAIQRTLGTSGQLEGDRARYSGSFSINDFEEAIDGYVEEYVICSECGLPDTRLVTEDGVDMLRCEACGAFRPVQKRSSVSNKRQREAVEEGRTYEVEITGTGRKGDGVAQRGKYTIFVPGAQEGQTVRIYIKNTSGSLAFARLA

The target of assay [3] is T3, DNA-directed RNA polymerase subunit Rpo11 (Haloferax volcanii) (UniProt D4GVL8).
T3 sequence: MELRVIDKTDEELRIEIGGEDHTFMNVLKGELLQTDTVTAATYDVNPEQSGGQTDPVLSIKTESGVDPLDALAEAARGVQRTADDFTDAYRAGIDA

The target in assay [4] is T4, DNA-directed RNA polymerase subunit Rpo1C (Haloferax volcanii) (UniProt D4GZX7).
T4 sequence: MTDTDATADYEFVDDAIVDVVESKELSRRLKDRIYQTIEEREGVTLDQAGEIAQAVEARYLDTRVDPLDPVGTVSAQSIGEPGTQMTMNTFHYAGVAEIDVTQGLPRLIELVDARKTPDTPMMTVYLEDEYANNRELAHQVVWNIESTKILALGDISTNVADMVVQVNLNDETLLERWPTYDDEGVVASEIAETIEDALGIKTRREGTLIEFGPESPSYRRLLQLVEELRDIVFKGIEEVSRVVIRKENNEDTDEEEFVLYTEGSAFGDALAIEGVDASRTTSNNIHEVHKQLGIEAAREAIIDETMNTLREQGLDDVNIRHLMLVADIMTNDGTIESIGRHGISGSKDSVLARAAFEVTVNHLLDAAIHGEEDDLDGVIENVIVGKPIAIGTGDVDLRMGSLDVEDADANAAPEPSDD

Assay [5] has as its target T5, DNA-directed RNA polymerase subunit Rpo1N (Haloferax volcanii) (UniProt D4GZX6).
T5 sequence: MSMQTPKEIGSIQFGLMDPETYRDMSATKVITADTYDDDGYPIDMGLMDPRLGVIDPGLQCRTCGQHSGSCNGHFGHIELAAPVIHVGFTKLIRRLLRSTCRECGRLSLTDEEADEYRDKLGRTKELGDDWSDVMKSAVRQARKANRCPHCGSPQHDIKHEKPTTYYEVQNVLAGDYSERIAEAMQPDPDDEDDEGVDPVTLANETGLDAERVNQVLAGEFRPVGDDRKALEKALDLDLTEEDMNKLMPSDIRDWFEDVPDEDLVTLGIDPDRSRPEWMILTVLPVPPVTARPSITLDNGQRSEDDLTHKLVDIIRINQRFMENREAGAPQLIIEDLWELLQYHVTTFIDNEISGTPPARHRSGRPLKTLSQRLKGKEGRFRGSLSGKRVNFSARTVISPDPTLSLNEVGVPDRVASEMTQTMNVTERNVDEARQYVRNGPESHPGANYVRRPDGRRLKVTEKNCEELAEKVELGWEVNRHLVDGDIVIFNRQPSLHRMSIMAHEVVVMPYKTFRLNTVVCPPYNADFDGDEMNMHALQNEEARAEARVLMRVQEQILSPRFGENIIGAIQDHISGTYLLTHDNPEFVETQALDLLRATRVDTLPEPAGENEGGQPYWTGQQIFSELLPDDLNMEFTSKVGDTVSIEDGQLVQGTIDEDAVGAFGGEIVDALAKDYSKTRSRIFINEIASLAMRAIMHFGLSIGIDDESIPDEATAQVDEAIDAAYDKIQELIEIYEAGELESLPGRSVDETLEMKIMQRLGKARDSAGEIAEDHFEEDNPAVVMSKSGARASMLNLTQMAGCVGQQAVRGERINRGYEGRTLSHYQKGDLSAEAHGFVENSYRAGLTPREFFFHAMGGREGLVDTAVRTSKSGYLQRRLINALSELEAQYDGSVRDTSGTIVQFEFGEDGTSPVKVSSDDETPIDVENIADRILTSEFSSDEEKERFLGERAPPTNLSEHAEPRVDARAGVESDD

The target of assay [6] is T6, DNA-directed RNA polymerase subunit Rpo3 (Haloferax volcanii) (UniProt D4GWY4).
T6 sequence: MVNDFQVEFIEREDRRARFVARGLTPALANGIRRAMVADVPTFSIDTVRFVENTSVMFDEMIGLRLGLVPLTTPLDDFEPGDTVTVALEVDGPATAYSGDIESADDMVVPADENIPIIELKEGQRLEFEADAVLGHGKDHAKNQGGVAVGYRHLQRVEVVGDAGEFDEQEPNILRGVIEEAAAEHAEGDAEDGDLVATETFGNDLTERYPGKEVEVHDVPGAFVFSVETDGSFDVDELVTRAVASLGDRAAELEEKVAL

Assay [7] addresses T7, DNA-directed RNA polymerase subunit Rpo5 (Haloferax volcanii) (UniProt D4GZX3).
T7 sequence: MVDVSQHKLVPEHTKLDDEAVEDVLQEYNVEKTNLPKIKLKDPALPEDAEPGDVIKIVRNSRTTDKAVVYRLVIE

The target of assay [8] is T8, DNA-directed RNA polymerase subunit Rpo2N (Haloferax volcanii) (UniProt D4GZX4).
T8 sequence: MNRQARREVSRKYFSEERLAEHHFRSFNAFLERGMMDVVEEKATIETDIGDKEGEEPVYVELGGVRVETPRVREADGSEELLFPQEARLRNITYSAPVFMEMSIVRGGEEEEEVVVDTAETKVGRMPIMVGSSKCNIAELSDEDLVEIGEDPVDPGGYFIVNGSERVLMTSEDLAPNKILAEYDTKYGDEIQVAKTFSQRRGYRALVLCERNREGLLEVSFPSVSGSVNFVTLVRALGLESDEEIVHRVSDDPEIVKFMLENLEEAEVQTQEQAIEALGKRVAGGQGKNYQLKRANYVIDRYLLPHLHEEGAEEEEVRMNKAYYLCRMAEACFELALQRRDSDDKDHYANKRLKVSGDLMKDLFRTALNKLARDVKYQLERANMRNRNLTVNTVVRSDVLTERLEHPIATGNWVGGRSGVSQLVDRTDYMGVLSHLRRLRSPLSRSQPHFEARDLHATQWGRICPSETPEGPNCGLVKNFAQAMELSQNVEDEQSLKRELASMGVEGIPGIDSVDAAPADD

B1: translation initiation factor aIF2 gamma subunit (protein, UniProt D4GTD4 1-411)
chain: MVTKNPQQPEVNIGLVGHVDHGKTTLVQALSGSWTDQHSEEMKRGISIRLGYADATFRQIPGVDAPECYTVEEETEDGEETDVLRTVSFVDAPGHETLMATMLSGAAIMDGAILLVSATEDVPQAQTAEHLMALDIIGIENIVIAQNKVDLVDRERAVDNYEQIQEFVEGTVAEDAPIVPISAQQEVNLDLLIEAIEEEIPTPDRDETEDSQMYVARSFDINRPGTTWDGLAGGVIGGSVVAGKLEAGDELELRPGREVDEEGQTEWRSITTEIRSLQAGGNMVDEVRPGGLCGVGTGLDPSFTKGDALAGQVAGEPGTLPPTREQFTMDVELLDRVVGDEEGEGIDEISTGEPLMLTVGTATTVGAVTSARSGEAEVSLKRPVCAEEGAKIAINRRVGARWRLIGIGTLK
On to B1, for which the binding entry in assay [1] and in assay [2] was “binds” each time.

B2: translation initiation factor aIF2 beta subunit (aIF2β-1) (protein, UniProt D4GZP2 1-135)
chain: MDYDDQLDRALSASPDVAEGDDRFSVPEPTVRQEGNVTVYENFAATHDRLAREATHVLKFFQTELGTSAQIDDRGRARFTGEFRQRRIADALDEYVESFVLCSECGSPDTKLTSQRGADVLKCDACGALSAIPDL
On to B2, for which the binding entry in assay [2] was “no binding”.

B3: DNA-directed RNA polymerase subunit Rpo2N (protein, UniProt D4GZX4 1-521)
chain: T8 sequence
In the case of B3, the binding entry in assay [3], in assay [4], in assay [5], in assay [6] and in assay [7] was “binds” each time.

B4: RNA polymerase auxiliary subunit RpoK (protein, UniProt D4GWX4 1-58)
chain: MMQRYNRYEKARILGARALQVSYGAPVLVDSEQTEPILIAAEEYDAGVLPFTVKREGK
For the molecule B4, the binding entry in assay [3], in assay [4], in assay [5], in assay [8], in assay [6] and in assay [7] was “no binding” in each case.

B5: DNA-directed RNA polymerase subunit Rpo5 (protein, UniProt D4GZX3 1-75)
chain: T7 sequence
With B5, the binding result in assay [3], in assay [4], in assay [5], in assay [8] and in assay [6] was “binds” throughout.
